The results in this text go back to paper PMC5342444.

Chains of the proteins cited; added tags and fusions are not shown. Residues count along the entry.
UniProt P38646, residues 47-679: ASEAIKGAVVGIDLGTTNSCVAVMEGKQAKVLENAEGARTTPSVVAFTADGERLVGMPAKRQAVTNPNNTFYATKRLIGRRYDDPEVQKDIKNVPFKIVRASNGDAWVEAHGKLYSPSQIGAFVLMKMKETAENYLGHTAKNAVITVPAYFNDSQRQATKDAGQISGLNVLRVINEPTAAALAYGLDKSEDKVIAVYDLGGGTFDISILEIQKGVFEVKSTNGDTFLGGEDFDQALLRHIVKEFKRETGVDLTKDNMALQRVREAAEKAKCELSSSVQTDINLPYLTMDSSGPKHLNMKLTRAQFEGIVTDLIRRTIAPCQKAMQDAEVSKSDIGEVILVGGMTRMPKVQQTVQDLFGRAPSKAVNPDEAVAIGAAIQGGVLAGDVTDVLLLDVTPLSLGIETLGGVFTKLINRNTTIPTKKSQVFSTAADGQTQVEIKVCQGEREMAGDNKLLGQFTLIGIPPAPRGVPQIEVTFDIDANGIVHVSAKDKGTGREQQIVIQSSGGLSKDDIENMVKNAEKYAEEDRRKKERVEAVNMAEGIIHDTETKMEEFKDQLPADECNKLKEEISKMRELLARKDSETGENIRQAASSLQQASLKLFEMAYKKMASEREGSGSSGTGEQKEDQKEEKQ
UniProt P11142: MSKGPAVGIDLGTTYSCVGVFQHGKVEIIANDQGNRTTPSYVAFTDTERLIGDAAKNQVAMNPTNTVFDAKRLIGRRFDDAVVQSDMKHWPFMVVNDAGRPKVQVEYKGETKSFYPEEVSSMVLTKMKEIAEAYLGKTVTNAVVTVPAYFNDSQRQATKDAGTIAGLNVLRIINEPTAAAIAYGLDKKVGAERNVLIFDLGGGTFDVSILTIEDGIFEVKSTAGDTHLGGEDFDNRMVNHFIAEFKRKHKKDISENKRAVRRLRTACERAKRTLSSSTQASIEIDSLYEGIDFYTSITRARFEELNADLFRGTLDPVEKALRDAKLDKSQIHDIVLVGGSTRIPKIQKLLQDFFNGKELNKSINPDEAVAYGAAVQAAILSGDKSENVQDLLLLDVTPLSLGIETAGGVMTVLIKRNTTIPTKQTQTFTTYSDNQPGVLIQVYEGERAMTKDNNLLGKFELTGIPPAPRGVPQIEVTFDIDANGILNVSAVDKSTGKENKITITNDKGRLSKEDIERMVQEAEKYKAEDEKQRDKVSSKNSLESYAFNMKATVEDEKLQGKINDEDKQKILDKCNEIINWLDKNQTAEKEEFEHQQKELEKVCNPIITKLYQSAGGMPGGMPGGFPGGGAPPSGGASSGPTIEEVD

These are yes or no findings as the source states them, for the method shown. In cells and extracts the contact can be indirect. These calls come from enrichment with a bait or labelling near it, and not all partners need be listed. Where a sequence is shown, tags or fusion partners need not be part of it.

The test deals with T1, CD24 overexpressed from the pcDNA4-CD24-myc plasmid in HT29 cells (human) (UniProt P25063).
T1 sequence: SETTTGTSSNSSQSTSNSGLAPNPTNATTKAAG
Briefly: affinity purification with mass spectrometry; lysates of HT29 cells transfected with pcDNA4 or pcDNA4-CD24-myc, immunoprecipitated; 12.5% SDS-PAGE, bands of interest excised, LC-MS/MS, MALDI-TOF/TOF; human MSDB databank.

For Grp75 (from UniProt P38646 47-679), the binding result is reported as “binds”.
Turning to Hspa8/Hsc71 (from UniProt P11142 1-646), the binding entry is on record as “binds”.
